Experimental findings from doi:10.1101/2021.08.01.454623 are described below.

In data set [1] the target is CL11 (ribosomal protein L11 C-terminal domain, wild type) (Bacillus stearothermophilus) (UniProt P56210). The experiment in a line: native ion mobility MS. To be noted: 9- charge state of complex, RNA label form not stated.
The test system of data set [2] is CL11-E (early 10-amino-acid variant). In words: native ion mobility MS. To be noted: 9- charge state of complex, RNA label form not stated.
Data set [3] shares this test system. In words: pull-down.
For data set [4], the system named is CL11-M (mid-stage 14-amino-acid variant). In words: EMSA. The following applies: 20 mM Mg2+, 175 mM K+, 2 uM each. On the technique in general: A gel shift assay detects complexes by their altered migration in electrophoresis.
The subject of data set [5] is CL11-E (early 10-amino-acid variant). The experiment in a line: EMSA. The following applies: 20 mM Mg2+, 175 mM K+, 2 uM each.

The exact form of at least one protein or probe is not confirmed. For some of these results: Weaker means in comparison with the reference protein, sequence or condition of that experiment. For some of these results: At least one verdict was read from the data and is not stated in words by the source.

For “GCCAGGAUGUAGGCUUAGAAGCAGCCAUCAUUUAAAGAAAGCGUAAUAGCUCACUGGU [biotinylated 58rRNA]”, the binding result is “binds” in data set [1]; “binds” in data set [2]; “binds more weakly” in data set [3] (40 to 50 C); “binds more weakly” in data set [3] (extreme pH); “binds more weakly” in data set [3] (no Mg2+ and K+).

On to “GCCAGGAUGUAGGCUUAGAAGCAGCCAUCAUUUAAAGAAAGCGUAAUAGCUCACUGGU [f58rRNA (fluorescent 58rRNA)]”, for which the binding result in data set [4] and in data set [5] was “binds” throughout.
